This assay addresses Manduca sexta V-ATPase subunit d (Manduca sexta (endogenous in midgut)) (UniProt Q25531). Nature of the assay: cryo-EM structure; M. sexta V-ATPase holoenzyme purified from tissue, in C12E10; 9.4 Å reconstruction (gold standard FSC 0.143); homology models of the subunits flexibly fitted by MDFF; side chains not resolved; both purified.

Chains of the proteins cited; added tags and fusions are not shown.
UniProt Q25531: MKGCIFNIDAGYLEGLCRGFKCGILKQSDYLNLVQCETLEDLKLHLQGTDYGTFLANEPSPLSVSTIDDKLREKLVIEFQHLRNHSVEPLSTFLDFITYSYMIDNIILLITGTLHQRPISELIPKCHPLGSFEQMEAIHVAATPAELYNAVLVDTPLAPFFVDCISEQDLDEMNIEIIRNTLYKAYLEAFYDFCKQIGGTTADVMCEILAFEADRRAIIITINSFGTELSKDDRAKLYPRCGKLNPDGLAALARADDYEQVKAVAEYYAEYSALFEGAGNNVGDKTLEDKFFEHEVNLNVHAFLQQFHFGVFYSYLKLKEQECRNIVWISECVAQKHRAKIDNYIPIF
UniProt Q9U5N1: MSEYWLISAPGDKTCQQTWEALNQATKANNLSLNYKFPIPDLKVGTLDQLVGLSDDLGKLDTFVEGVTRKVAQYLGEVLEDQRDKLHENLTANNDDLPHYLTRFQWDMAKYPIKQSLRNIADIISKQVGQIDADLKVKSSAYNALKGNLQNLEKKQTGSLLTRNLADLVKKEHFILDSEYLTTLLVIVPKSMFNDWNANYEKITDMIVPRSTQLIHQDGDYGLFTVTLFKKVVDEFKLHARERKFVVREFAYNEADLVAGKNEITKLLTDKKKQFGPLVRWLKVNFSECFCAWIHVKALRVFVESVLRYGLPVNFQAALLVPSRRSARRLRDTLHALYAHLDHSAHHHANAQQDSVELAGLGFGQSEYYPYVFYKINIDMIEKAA

Results are given in words; binding and its absence hold for the method and conditions named.

Take “Manduca sexta V-ATPase subunit C (from UniProt Q9U5N1 1-385)”: the binding entry is “no binding”.

For the origin of these results see publication PMC4353692.
